Measured values: the supplement of paper PMC12819154, “High-throughput peptide-centric local stability assay extends protein–ligand identification to membrane proteins, tissues and bacteria” (Nature Structural & Molecular Biology, 2025)
The list shows a part of the results. Small differences around the control level are noise.

By UniProt entry, the sequences of proteins in these tests, tags left out. Where a name states a change or a piece, a line headed by the entry shows the natural chain unless it says otherwise.
UniProt Q9BTV7: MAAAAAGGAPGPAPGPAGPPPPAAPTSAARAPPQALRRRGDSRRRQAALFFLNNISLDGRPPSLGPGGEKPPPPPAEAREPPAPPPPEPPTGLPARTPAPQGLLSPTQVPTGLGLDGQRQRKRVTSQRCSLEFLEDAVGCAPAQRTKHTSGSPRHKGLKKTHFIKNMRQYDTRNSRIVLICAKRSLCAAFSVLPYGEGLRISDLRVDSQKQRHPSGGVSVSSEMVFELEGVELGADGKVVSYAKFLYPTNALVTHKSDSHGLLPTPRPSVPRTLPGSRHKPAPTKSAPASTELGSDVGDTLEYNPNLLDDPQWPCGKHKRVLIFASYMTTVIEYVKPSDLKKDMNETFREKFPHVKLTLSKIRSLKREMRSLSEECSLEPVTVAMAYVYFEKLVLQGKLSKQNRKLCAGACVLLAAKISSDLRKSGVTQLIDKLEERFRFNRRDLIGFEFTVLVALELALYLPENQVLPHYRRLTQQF
UniProt Q99996, whole entry: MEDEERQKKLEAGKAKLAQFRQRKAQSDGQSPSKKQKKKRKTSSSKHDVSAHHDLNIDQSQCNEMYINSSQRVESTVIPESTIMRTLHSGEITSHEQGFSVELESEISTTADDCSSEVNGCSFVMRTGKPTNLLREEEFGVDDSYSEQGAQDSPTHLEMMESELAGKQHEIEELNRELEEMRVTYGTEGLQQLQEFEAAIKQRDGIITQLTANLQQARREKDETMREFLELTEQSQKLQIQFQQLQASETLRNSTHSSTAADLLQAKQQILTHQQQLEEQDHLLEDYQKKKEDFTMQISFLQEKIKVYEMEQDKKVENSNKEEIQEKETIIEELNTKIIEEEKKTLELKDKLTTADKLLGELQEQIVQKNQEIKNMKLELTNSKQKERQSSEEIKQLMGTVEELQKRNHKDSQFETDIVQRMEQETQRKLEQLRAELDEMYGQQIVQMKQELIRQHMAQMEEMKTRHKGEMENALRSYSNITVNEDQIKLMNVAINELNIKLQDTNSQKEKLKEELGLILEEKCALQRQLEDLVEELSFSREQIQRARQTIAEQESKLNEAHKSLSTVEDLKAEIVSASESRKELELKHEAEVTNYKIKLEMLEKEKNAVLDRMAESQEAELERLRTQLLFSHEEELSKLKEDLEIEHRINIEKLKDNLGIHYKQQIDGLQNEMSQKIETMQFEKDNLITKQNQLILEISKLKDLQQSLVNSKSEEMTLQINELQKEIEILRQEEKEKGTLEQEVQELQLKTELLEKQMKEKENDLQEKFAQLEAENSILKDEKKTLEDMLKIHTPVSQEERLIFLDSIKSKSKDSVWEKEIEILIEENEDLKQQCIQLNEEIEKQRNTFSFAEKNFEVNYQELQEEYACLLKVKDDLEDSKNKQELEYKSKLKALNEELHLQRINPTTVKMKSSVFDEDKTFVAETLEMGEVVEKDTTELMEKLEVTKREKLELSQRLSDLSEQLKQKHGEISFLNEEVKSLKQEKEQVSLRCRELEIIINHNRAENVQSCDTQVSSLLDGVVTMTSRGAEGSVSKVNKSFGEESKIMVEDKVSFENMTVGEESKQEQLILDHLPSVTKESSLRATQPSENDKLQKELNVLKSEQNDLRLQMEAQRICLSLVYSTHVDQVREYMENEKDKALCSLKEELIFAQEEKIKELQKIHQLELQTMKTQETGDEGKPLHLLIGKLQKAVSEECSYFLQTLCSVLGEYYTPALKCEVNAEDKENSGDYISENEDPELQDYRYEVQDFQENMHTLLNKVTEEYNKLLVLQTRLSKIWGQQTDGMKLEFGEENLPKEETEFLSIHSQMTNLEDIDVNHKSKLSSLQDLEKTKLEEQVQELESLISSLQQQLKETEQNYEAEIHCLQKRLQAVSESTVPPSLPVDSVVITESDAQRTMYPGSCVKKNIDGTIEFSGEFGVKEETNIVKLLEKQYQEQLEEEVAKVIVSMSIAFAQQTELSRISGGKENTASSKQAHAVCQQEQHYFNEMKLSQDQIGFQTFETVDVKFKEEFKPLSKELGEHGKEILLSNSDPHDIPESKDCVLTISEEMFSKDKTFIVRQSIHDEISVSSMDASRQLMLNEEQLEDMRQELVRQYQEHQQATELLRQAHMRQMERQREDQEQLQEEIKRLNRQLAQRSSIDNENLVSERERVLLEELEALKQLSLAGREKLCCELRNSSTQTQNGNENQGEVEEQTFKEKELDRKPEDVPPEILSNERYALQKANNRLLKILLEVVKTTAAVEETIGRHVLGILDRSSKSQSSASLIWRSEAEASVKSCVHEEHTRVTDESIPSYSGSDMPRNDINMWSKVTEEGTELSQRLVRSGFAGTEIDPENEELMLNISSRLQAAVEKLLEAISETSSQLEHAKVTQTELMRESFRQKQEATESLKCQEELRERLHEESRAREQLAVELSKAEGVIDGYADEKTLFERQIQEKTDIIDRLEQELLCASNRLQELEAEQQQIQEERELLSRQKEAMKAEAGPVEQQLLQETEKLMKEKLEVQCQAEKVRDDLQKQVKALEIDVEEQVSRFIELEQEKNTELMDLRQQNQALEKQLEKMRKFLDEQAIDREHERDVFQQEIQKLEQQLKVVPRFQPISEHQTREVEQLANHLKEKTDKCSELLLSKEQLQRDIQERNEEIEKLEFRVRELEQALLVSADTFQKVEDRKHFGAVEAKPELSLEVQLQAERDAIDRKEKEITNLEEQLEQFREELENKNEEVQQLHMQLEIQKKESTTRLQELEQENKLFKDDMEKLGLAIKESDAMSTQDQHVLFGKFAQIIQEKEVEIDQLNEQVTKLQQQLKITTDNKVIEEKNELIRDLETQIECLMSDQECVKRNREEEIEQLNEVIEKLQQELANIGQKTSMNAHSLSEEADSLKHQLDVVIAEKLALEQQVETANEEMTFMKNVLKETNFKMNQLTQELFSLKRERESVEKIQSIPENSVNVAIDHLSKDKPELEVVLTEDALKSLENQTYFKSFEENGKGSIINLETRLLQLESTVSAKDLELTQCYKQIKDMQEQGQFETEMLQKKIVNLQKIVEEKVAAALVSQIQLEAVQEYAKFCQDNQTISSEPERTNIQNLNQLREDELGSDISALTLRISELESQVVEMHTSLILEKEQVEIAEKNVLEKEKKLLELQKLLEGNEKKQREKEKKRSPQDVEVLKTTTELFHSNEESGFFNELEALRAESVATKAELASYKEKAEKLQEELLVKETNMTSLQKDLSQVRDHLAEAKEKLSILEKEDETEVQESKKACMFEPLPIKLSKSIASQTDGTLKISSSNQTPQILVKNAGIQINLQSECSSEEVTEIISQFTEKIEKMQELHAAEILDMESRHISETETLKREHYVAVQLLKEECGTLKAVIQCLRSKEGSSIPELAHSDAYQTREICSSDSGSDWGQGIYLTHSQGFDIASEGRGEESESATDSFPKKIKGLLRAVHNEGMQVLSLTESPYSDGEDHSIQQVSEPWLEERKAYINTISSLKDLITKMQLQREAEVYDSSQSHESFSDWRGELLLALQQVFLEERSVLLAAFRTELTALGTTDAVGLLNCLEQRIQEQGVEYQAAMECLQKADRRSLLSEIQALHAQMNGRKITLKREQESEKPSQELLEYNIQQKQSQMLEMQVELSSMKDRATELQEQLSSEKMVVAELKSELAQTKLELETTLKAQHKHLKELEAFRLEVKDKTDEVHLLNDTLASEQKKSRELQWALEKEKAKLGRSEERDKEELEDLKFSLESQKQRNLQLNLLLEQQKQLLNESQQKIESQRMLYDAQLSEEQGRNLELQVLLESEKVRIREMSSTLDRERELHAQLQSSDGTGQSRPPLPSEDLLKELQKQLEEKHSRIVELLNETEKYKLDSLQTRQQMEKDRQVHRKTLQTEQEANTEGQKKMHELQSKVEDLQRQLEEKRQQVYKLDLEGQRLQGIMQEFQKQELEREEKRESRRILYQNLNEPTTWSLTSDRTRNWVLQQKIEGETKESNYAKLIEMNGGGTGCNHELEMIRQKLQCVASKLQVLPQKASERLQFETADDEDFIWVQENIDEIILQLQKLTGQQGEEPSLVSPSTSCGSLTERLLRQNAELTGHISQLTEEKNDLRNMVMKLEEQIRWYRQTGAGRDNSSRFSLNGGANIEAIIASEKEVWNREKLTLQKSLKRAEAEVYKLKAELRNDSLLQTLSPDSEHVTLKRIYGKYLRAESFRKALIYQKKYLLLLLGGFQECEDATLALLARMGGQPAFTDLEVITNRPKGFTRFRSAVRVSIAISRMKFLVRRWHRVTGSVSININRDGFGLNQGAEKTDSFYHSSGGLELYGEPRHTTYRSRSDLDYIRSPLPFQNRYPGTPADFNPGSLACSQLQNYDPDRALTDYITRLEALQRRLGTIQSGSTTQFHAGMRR
UniProt Q9BUE6: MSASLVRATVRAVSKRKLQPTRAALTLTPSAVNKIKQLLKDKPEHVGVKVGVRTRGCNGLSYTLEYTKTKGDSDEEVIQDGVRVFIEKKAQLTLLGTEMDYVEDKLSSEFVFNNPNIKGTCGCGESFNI
UniProt Q9BR61: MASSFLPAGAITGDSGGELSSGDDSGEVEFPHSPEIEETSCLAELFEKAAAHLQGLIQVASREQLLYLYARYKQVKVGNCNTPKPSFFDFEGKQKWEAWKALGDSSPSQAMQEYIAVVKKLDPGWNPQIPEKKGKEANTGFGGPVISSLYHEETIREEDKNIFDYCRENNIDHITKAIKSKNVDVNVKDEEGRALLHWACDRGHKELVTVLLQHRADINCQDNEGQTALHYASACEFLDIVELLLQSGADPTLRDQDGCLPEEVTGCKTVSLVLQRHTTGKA
UniProt Q9BS16: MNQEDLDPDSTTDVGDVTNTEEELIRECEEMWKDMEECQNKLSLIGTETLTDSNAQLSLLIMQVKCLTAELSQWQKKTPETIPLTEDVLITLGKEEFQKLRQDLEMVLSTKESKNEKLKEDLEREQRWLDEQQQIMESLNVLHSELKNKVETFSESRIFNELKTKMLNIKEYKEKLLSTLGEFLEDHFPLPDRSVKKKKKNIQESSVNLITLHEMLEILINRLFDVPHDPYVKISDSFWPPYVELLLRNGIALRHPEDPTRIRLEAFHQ
UniProt Q9BSL1: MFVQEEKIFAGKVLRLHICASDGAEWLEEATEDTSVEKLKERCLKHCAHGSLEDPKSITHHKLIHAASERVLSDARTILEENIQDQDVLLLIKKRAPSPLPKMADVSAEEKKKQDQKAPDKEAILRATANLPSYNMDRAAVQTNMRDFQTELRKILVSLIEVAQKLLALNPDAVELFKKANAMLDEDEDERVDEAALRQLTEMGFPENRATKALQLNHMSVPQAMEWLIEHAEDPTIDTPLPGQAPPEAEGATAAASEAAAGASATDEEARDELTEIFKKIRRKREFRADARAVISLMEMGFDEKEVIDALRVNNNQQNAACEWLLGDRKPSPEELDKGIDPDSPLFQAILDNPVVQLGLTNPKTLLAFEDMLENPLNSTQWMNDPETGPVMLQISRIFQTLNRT
UniProt Q9BW66: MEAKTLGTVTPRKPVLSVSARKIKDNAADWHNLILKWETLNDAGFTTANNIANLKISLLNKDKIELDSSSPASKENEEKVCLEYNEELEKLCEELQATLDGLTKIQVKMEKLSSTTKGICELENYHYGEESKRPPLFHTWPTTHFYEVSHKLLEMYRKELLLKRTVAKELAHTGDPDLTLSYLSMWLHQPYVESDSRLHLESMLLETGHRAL
UniProt Q9BTA9: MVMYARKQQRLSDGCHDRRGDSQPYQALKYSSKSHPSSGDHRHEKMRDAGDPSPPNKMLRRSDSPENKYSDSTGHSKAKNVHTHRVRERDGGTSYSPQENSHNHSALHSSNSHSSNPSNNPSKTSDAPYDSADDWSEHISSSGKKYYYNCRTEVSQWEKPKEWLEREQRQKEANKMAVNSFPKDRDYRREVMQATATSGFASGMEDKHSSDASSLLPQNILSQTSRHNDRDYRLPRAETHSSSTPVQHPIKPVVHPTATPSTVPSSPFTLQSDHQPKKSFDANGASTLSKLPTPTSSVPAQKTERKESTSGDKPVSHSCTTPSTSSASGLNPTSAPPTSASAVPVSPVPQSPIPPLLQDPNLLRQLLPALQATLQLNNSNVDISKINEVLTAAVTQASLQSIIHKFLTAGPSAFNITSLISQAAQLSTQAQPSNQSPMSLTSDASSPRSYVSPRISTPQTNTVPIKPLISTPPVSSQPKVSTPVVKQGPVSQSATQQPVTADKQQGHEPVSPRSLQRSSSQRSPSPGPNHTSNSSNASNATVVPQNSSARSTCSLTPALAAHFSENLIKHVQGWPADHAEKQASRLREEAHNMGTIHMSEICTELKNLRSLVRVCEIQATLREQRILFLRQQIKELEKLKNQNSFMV
UniProt Q99618: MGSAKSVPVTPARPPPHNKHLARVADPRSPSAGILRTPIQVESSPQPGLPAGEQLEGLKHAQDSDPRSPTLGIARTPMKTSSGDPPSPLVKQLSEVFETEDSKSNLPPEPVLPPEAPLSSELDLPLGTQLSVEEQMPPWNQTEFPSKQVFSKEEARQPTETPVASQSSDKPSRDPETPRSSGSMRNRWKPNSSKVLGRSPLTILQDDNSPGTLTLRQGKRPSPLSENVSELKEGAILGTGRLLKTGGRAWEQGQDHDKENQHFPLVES

These targets were tested with CN[C@@H]1C[C@H]2O[C@@](C)([C@@H]1OC)n1c3ccccc3c3c4c(c5c6ccccc6n2c5c31)C(=O)NC4 [staurosporine] (assay: log2 fold change of tryptic peptide abundance, ligand vs vehicle (limited proteolysis) (log2 ratio); higher = more trypsin-susceptible (destabilized)). Settings: ligand concentration: 20 uM; sample: K562 cleared lysate; digestion: 4 min, 22 C (HT-PELSA RT4min, Orbitrap Astral).

| Target | log2 fold change |
| --- | --- |
| NUDT9 (peptide sequence: LYASHSQFIK, peptide start residue: 320) (UniProt Q9BW91) | -0.188 |
| CABLES2 (peptide sequence: FLYPTNALVTHK, peptide start residue: 245) (UniProt Q9BTV7) | -0.189 |
| AKAP9 (peptide sequence: SQSSASLIWR, peptide start residue: 1763) (UniProt Q99996) | -0.246 |
| ISCA1 (peptide sequence: AALTLTPSAVNK, peptide start residue: 23) (UniProt Q9BUE6) | 0.332 |
| NAA11 (peptide sequence: DLSQMADELR, peptide start residue: 150) (UniProt Q9BSU3) | -0.368 |
| ACBD6 (peptide sequence: PSFFDFEGK, peptide start residue: 85) (UniProt Q9BR61) | 0.634 |
| UniProt Q9BSW2 (peptide sequence: VLEDESDVK, peptide start residue: 172) | -0.292 |
| CENPK (peptide sequence: LFDVPHDPYVK, peptide start residue: 223) (UniProt Q9BS16) | 0.515 |
| UBAC1 (peptide sequence: HCAHGSLEDPK, peptide start residue: 46) (UniProt Q9BSL1) | 0.217 |
| CINP (peptide sequence: GICELENYHYGEESK, peptide start residue: 118) (UniProt Q9BW66) | -0.196 |
| ZFYVE21 (peptide sequence: QCAECALVSLK, peptide start residue: 95) (UniProt Q9BQ24) | -0.479 |
| HIRIP3 (peptide sequence: LVEEELLK, peptide start residue: 53) (UniProt Q9BW71) | -0.147 |
| HDHD3 (peptide sequence: AHGLEVEPSALEQGFR, peptide start residue: 35) (UniProt Q9BSH5) | 0.671 |
| ELAC2 (peptide sequence: VPLFSPNFSEK, peptide start residue: 732) (UniProt Q9BQ52) | 0.217 |
| FEM1A (peptide sequence: TAYELLDEK, peptide start residue: 616) (UniProt Q9BSK4) | -0.247 |
| EBNA1BP2 (peptide sequence: SDLQMQK, peptide start residue: 143) (UniProt Q99848) | -0.333 |
| UniProt Q9BW85 (peptide sequence: LMAPFNMR, peptide start residue: 35) | 0.191 |
| GINS3 (peptide sequence: LELPLWLAK, peptide start residue: 66) (UniProt Q9BRX5) | 0.445 |
| SH3GL3 (peptide sequence: MSVAGLKK, peptide start residue: 1) (UniProt Q99963) | 0.86 |
| ZNF670 (peptide sequence: STYLGIHER, peptide start residue: 265) (UniProt Q9BS34) | 0.408 |
| SIKE1 (peptide sequence: KAVQVDDDQFCKIQEK, peptide start residue: 154) (UniProt Q9BRV8) | -0.712 |
| WAC (peptide sequence: ISTPQTNTVPIKPLISTPPVSSQPK, peptide start residue: 455) (UniProt Q9BTA9) | -0.234 |
| CDCA3 (peptide sequence: SPLTILQDDNSPGTLTLR, peptide start residue: 199) (UniProt Q99618) | -0.0913 |
| RSRP1 (peptide sequence: TVYPEEHSR, peptide start residue: 145) (UniProt Q9BUV0) | -0.412 |
| WDR77 (peptide sequence: MRKETPPPLVPPAAR, peptide start residue: 1) (UniProt Q9BQA1) | 0.787 |

Two neighbouring entries out of the list so far, for reference:

| Target | log2 fold change |
| --- | --- |
| ZNF670 (peptide sequence: STYLGIHER, peptide start residue: 265) (UniProt Q9BS34) | 0.408 |
| SIKE1 (peptide sequence: KAVQVDDDQFCKIQEK, peptide start residue: 154) (UniProt Q9BRV8) | -0.712 |
